Test results as given in PubChem BioAssay (NCATS).
This list was built around the results that the source calls inconclusive (neither active nor inactive); the mix of calls is not that of the screen. Potencies beside an inconclusive call are fits to weak or partial responses and may not hold up. Active and inactive are the calls of the source. The call rests on the fitted dose curve; in most records, active means well fitted cell-killing curve with a large enough effect; inconclusive means small, poorly fitted or top-dose-only effect, or effect the other way; inactive means no such curve, though single readings can be large or run the other way.

Assays:
[1] = Quantitative High-Throughput drug screen in 47 multiple myeloma cell lines against the NCATS MIPE library collection: L363_DSMZ cell viability assay (AID 1918984); conditions: L363 myeloma viability, CellTiter-Glo ATP luminescence, 48 h; viability (% of control): at 45.8 µM (top of the series); further: nearly all actives have a fitted effect of over 40% in size
Outline: (§1)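 Cells were exposed to library compounds for 48 hours, after which ATP was measured by CellTiter-Glo. Signal was taken as median relative luminescence units.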

[2] = Quantitative High-Throughput drug screen in 47 multiple myeloma cell lines against the NCATS MIPE library collection: KMS34_JCRB cell viability assay (AID 1918985); conditions: KMS34 myeloma viability, CellTiter-Glo ATP luminescence, 48 h; viability, percent of control: at 45.8 µM (top of the series); further: nearly all actives have a fitted effect of over 40% in size;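 on viability, percent of control: 100% = DMSO-only wells and 0% = media-only wells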
Outline: as §1

[3] = Quantitative High-Throughput drug screen in 47 multiple myeloma cell lines against the NCATS MIPE library collection: SKMM1_PLB cell viability assay (AID 1919863); conditions: SKMM1 myeloma viability, CellTiter-Glo ATP, 48 h; viability: active compounds read low; further: nearly all actives have a fitted effect of over 35% in size
Outline: as §1

[4] = Quantitative High-Throughput drug screen in 47 multiple myeloma cell lines against the NCATS MIPE library collection: XG6_PLB cell viability assay (AID 1919865); conditions: XG6 myeloma viability, CellTiter-Glo ATP luminescence, 48 h; viability (% of control): at 45.8 µM (top of the series); further: nearly all actives have a fitted effect of over 40% in size
Outline: as §1

[5] = Quantitative High-Throughput drug screen in 47 multiple myeloma cell lines against the NCATS MIPE library collection: OCIMY5_PLB cell viability assay (AID 1918988); conditions: OCI-MY5 myeloma viability, ATP luminescence, 48 h; viability, % of control: at 45.8 µM (top of the series); further: nearly all actives have a fitted effect of over 65% in size
Outline: as §1

[6] = Quantitative High-Throughput drug screen in 47 multiple myeloma cell lines against the NCATS MIPE library collection: U266_ATCC cell viability assay (AID 1919864); further: nearly all actives have a fitted effect of over 35% in size
Outline: as §1

[7] = Quantitative High-Throughput drug screen in 47 multiple myeloma cell lines against the NCATS MIPE library collection: VP6_DJ cell viability assay (AID 1919867); conditions: ATP luminescence, 48 h; viability (% of DMSO): at 45.8 µM (top of the series); further: nearly all actives have a fitted effect of over 40% in size;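 on viability (% of DMSO): 100% = DMSO-only wells and 0% = wells with media alone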
Outline: as §1

[8] = Quantitative High-Throughput drug screen in 47 multiple myeloma cell lines against the NCATS MIPE library collection: OPM1_PLB cell viability assay (AID 1918989); further: nearly all actives have a fitted effect of over 40% in size;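 on viability (% of control): 100% = DMSO-only wells and 0% = media-only wells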
Outline: as §1

[9] = Quantitative High-Throughput drug screen in 47 multiple myeloma cell lines against the NCATS MIPE library collection: XG1_PLB cell viability assay (AID 1919866); further: nearly all actives have a fitted effect of over 35% in size
Outline: as §1

[10] = Quantitative High-Throughput drug screen in 47 multiple myeloma cell lines against the NCATS MIPE library collection: OCIMY7_PLB cell viability assay (AID 1918987); conditions: OCI-MY7 myeloma viability, CellTiter-Glo ATP, 48 h; viability (% of DMSO): at 45.8 µM (top of the series); further: nearly all actives have a fitted effect of over 65% in size
Outline: as §1
Potency means the concentration at half of the fitted maximal effect.

Compound | Potency [1] | Potency [2] | Potency [3] | Potency [4] | Potency [5] | Potency [6] | Potency [7] | Potency [8] | Potency [9] | Potency [10] | viability [3]
CN(C[C@@H]1COCCO1)S(=O)(=O)Nc1ccc2ccc3ncc(-c4cnn(C)c4)cc3c(=O)c2c1 | inconclusive: 5.9 µM [cytotoxic, full curve] | inconclusive: 3.32 µM [cytotoxic, full curve, poor fit] | inconclusive: 37.2 µM [cytotoxic, single point] | inconclusive: 9.35 µM [cytotoxic, partial curve] |  |  |  |  |  |  | 
Cc1ccc(C2=Nc3ccc(Cl)cc3OC2)cc1 | inconclusive: 0.0418 µM [cytotoxic, full curve, poor fit] | active: 6.62 µM | inconclusive: 11.8 µM [cytotoxic, partial curve, poor fit] |  | inconclusive: 5.26 µM [cytotoxic, full curve, poor fit] | active: 9.35 µM | inconclusive: 0.0019 µM [cytotoxic, full curve, poor fit] |  |  |  | 
O=C(Nc1cc(Cl)cc2c1[nH]c1cnccc12)c1cccnc1 | inconclusive: 0.264 µM [cytotoxic, full curve, poor fit] | inconclusive: 18.7 µM [cytotoxic, single point] | inconclusive: 0.0372 µM [cytotoxic, full curve, poor fit] |  | active: 16.6 µM | active: 20.9 µM |  |  |  |  | 
CO[C@H]1C[C@@H]2CC[C@@H](C)[C@@](O)(O2)C(=O)C(=O)N2CCCC[C@@H]2C(=O)O[C@H]([C@H](C)C[C@@H]2CC[C@H](OC(=O)C(C)(CO)CO)[C@H](OC)C2)CC(=O)[C@H](C)C=C(C)[C@@H](O)[C@@H](OC)C(=O)[C@H](C)C[C@H](C)C=CC=CC=C1C | inconclusive: 0.0012 µM [cytotoxic, full curve] | inconclusive: 37.2 µM [cytotoxic, single point] | inconclusive: 23.5 µM [cytotoxic, single point] | inconclusive: 23.5 µM [cytotoxic, partial curve] | inconclusive: 37.2 µM [cytotoxic, single point] | inconclusive: 37.2 µM [cytotoxic, single point] |  | inconclusive: 18.7 µM [cytotoxic, partial curve] | inconclusive: 29.6 µM [cytotoxic, single point] |  | 
Oc1ccc(-c2nc(-c3ccc(F)cc3)c(-c3ccncc3)[nH]2)cc1 | inconclusive: 0.0012 µM [rising, full curve, poor fit] | inconclusive: 1.32 µM [cytotoxic, full curve] | inconclusive: 33.2 µM [cytotoxic, single point] | inconclusive: 18.7 µM [cytotoxic, partial curve] | active: 16.6 µM | inconclusive: 33.2 µM [cytotoxic, single point] | active: 16.6 µM |  | inconclusive: 29.6 µM [cytotoxic, single point] |  | 
COc1ccccc1N1CCN(CCN(C(=O)C2CCCCC2)c2ccccn2)CC1 | inconclusive: 14.8 µM [cytotoxic, partial curve, poor fit] | inactive |  |  | inconclusive: 3.72 µM [cytotoxic, full curve, poor fit] | inconclusive: 0.0118 µM [rising, full curve, poor fit] |  | inactive |  |  | 
Clc1ccc(C(c2ccccc2Cl)C(Cl)Cl)cc1 (configuration not stated) | inactive | inconclusive: 29.6 µM [cytotoxic, single point] |  | inconclusive: 16.6 µM [cytotoxic, partial curve] | inconclusive: 37.2 µM [cytotoxic, single point] |  |  |  | inconclusive: 14.8 µM [cytotoxic, partial curve] |  | 
Nc1ncnc2c1nc(Cl)n2[C@@H]1O[C@H](CO)[C@@H](O)[C@@H]1O | active: 20.9 µM | active: 11.8 µM | active: 14.8 µM |  |  |  | active: 1.32 µM | inconclusive: 20.9 µM [cytotoxic, partial curve, poor fit] |  |  | 
CN(C)C(=O)C(CCN1CCC(O)(c2ccc(Cl)cc2)CC1)(c1ccccc1)c1ccccc1 | inactive | inconclusive: 29.6 µM [cytotoxic, single point] |  |  |  |  |  |  | active: 18.7 µM | active: 20.9 µM | 
CCCCCCCCCCCC1=C(O)C(=O)C=C(O)C1=O | active: 0.469 µM | inconclusive: 10.5 µM [cytotoxic, full curve] | inconclusive: 18.7 µM [cytotoxic, partial curve, poor fit] |  |  | inconclusive: 0.0093 µM [rising, full curve, poor fit] |  | active: 3.72 µM | inconclusive: 0.833 µM [cytotoxic, full curve, poor fit] |  | 
N#Cc1c(N(CC(=O)O)CC(=O)O)sc(C(=O)O)c1CC(=O)O | inconclusive: 10.5 µM [cytotoxic, partial curve, poor fit] | inconclusive: 20.9 µM [cytotoxic, partial curve, poor fit] |  | inconclusive: 20.9 µM [cytotoxic, partial curve] | inconclusive: 0.003 µM [cytotoxic, full curve, poor fit] | inactive | inconclusive: 1.32 µM [rising, full curve, poor fit] | inconclusive: 37.2 µM [cytotoxic, single point] | inconclusive: 37.2 µM [cytotoxic, single point] |  | inactive: 102%
Cc1ccc(/C=N/NC(=O)c2ccccc2Oc2ccccc2)o1 | inactive | inconclusive: 18.7 µM [cytotoxic, single point] | inconclusive: 16.6 µM [cytotoxic, partial curve, poor fit] | inconclusive: 9.35 µM [cytotoxic, partial curve] | active: 16.6 µM | inconclusive: 13.2 µM [cytotoxic, partial curve, poor fit] | inactive | inconclusive: 16.6 µM [cytotoxic, partial curve, poor fit] |  |  | 
Clc1ccc(C(Cn2ccnc2)OCc2c(Cl)cccc2Cl)c(Cl)c1 (configuration not stated) | active: 18.7 µM | inconclusive: 33.2 µM [cytotoxic, single point] |  | active: 26.4 µM |  | inconclusive: 0.0332 µM [rising, full curve, poor fit] |  | inconclusive: 29.6 µM [cytotoxic, single point] |  |  | 
CN1CCN(CCCN2c3ccccc3Sc3ccc(Cl)cc32)CC1 | active: 3.32 µM | inconclusive: 37.2 µM [cytotoxic, single point] | inconclusive: 33.2 µM [cytotoxic, single point] |  |  |  | active: 10.5 µM |  |  |  | 
Cc1cc(-c2ccc(CC(=O)Nc3ccc(-c4cccnc4)cc3)cc2)ccn1 | inconclusive: 33.2 µM [cytotoxic, partial curve, poor fit] | inconclusive: 18.7 µM [cytotoxic, partial curve, poor fit] | inconclusive: 8.33 µM [cytotoxic, full curve, poor fit] | inconclusive: 20.9 µM [cytotoxic, partial curve] |  | inconclusive: 1.48 µM [cytotoxic, partial curve, poor fit] |  | active: 20.9 µM |  |  | 
c1cc(-c2sc(-c3ccncc3)c(-c3ccncc3)c2-c2ccncc2)ccn1 | active: 3.32 µM |  | inconclusive: 37.2 µM [cytotoxic, single point] | inconclusive: 7.43 µM [cytotoxic, full curve] | inconclusive: 8.33 µM [cytotoxic, partial curve, poor fit] | inconclusive: 23.5 µM [cytotoxic, single point] |  | inconclusive: 1.48 µM [cytotoxic, partial curve, poor fit] |  | active: 5.26 µM | 
CCCCc1ccc(NS(=O)(=O)c2ccc(C)c(C(=O)N3CCN(c4cccc(C)c4C)CC3)c2)cc1 | inactive |  |  | inconclusive: 33.2 µM [cytotoxic, single point] | inconclusive: 18.7 µM [cytotoxic, partial curve, poor fit] |  | inconclusive: 6.62 µM [cytotoxic, partial curve, poor fit] | inconclusive: 29.6 µM [cytotoxic, single point] | inconclusive: 33.2 µM [cytotoxic, single point] | inconclusive: 16.6 µM [cytotoxic, partial curve, poor fit] | 

A portion of the results above, as a working copy:
Compound | Potency [1] | Potency [2] | Potency [3] | Potency [4] | Potency [5] | Potency [6] | Potency [7] | Potency [8] | Potency [9] | Potency [10] | viability [3]
Clc1ccc(C(Cn2ccnc2)OCc2c(Cl)cccc2Cl)c(Cl)c1 (configuration not stated) | active: 18.7 µM | inconclusive: 33.2 µM [cytotoxic, single point] |  | active: 26.4 µM |  | inconclusive: 0.0332 µM [rising, full curve, poor fit] |  | inconclusive: 29.6 µM [cytotoxic, single point] |  |  | 
CN1CCN(CCCN2c3ccccc3Sc3ccc(Cl)cc32)CC1 | active: 3.32 µM | inconclusive: 37.2 µM [cytotoxic, single point] | inconclusive: 33.2 µM [cytotoxic, single point] |  |  |  | active: 10.5 µM |  |  |  | 
